PubChem BioAssay AID504804, Drosophila RNAi Screening Center | 2011
Screen: 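Fly genes whose loss lessens doxorubicin-driven cell death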 (primary screen). Cells: Drosophila Kc cells. Knock-down reagent: long dsRNA against Drosophila genes, 0.5 µg dsRNA per well. Time to read-out: 96 h (48 h knock-down, then 48 h drug). Challenge: doxorubicin 5 µg/ml for 48 h, added 48 h after dsRNA. Read-out: 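Luminescent ATP counts per replicate, not normalised, reflecting viable cells after 48 h dsRNA knock-down followed by 48 h of 5 µg/ml doxorubicin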. Direction: raw ATP luminescence: higher = more viable cells, protection from doxorubicin. Active means: 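Active when both duplicate wells lie at least 2 SD above the plate mean and protection is confirmed by rescreening and independent dsRNAs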.
The deposit covers about 19,000 reagents; below is an unselected part of those that have a named target and a result. Of all reagents, 47 (0.25%) were called active. 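Signals are raw, not normalised; exact z-scores behind calls not deposited; actives needed confirmation, so some wells reaching 2 SD are inactive.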 The numbers tell different reagents against one gene apart. Names joined by + are all predicted targets of the reagent.

Gene,reagent no.,SD above plate mean,"raw ATP luminescence, replicate 1","raw ATP luminescence, replicate 2",Call
CG11158,1,,2.88e5,2.38e5,inactive
TwdlG,1,,57073,58440,inactive
xmas,1,,1.40e5,2.01e5,inactive
ppk30,1,,60530,50940,inactive
CG3999,1,,57773,52347,inactive
CG7214,1,,1.03e5,64150,inactive
Ppt2,1,,1.07e5,88007,inactive
CG11911,1,,1.15e5,71107,inactive
kdn,1,,35360,52770,inactive
CG42340,1,,1.70e5,2.28e5,inactive
CG42340,2,,29010,40110,inactive
CG42340,3,,32000,35490,inactive
msl-2,1,,1.22e5,64817,inactive
mkg-p + Tpt,1,,46280,47673,inactive
Brd,1,2 to 3 SD above plate mean,94253,1.02e5,inactive
CG12016 + Dpm2,1,,27550,37650,inactive
endos,1,,25840,19767,inactive

No new results follow: an excerpt of the list.
Gene,reagent no.,SD above plate mean,"raw ATP luminescence, replicate 1","raw ATP luminescence, replicate 2",Call
CG42340,2,,29010,40110,inactive
CG42340,3,,32000,35490,inactive
msl-2,1,,1.22e5,64817,inactive
mkg-p + Tpt,1,,46280,47673,inactive
Brd,1,2 to 3 SD above plate mean,94253,1.02e5,inactive

Next entries:
Gene,reagent no.,SD above plate mean,"raw ATP luminescence, replicate 1","raw ATP luminescence, replicate 2",Call
asrij,1,,41477,46943,inactive
CG5181,1,,1.30e5,73460,inactive
CG15145,1,,76130,79237,inactive
ken,1,,36507,31777,inactive
CG31446,1,,2.46e5,2.63e5,inactive
CG12589,1,,71443,61260,inactive
alpha-Est7,1,,1.37e5,1.94e5,inactive
Nup58,1,,58160,69960,inactive
AstC,1,,40763,86800,inactive
Pxt,1,,41590,29660,inactive
Sps2,1,,44757,76920,inactive
SdhB,1,,63173,51660,inactive
Alh,1,,66390,19213,inactive
Alh,2,,45637,50717,inactive
Alh,3,,43037,49180,inactive
CG18508,1,,49300,56730,inactive
CG9632,1,,84540,86700,inactive
